Measurements from patent US20070060566A1, “Benzazepine derivatives as histamine h3 antagonists” (priority 2003, published 2007).
Some of these results come from one statement about several compounds together.

The chains behind the UniProt entries cited, without tags or fusion partners. Where a name states a change or a piece, a line headed by the entry shows the natural chain unless it says otherwise.
UniProt Q9Y5N1: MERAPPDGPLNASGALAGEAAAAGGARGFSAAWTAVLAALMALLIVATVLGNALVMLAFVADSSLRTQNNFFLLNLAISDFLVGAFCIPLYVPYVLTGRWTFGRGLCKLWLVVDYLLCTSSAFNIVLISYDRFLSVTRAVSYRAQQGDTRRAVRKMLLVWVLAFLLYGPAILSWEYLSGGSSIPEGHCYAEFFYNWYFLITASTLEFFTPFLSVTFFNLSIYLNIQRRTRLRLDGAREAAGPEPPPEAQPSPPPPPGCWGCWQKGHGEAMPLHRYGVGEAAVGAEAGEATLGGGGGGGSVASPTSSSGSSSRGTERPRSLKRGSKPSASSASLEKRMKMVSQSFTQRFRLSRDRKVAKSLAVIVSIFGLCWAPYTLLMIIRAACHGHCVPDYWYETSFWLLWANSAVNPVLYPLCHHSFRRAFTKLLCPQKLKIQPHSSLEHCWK

What follows are compounds tested against T1, human histamine H3 receptor (Homo sapiens, UniProt Q9Y5N1) (assay: Histamine H3 functional antagonist assay ([35S]GTPγS SPA on membranes)). Conditions: membranes of CHO K1 cells expressing human histamine H3; histamine 0.3 μM.
T1 construct: expressed in transfected cells; host or cells: CHO K1 cells carrying the pSwitch regulatory plasmid, transfected with pGeneH3, induced with mifepristone; clone 3H3
Assay type: biochemical

Antagonism (pKb), > 6.5 pKb:
CCn1nc(C(=O)Nc2ccc3c(c2)CCN(C2CCC2)CC3)cc1C.O=C(O)C(F)(F)F [Example 204, N-(3-Cyclobutyl-2,3,4,5-tetrahydro-1H-3-benzazepin-7-yl)-1-ethyl-5-methyl-1H-pyrazole-3-carboxamide trifluoroacetate]
CS(=O)(=O)Nc1ccc2c(c1)CCN(C1CCC1)CC2 [Example 6, N-(3-Cyclobutyl-2,3,4,5-tetrahydro-1H-3-benzazepin-7-yl)methanesulfonamide]
O=C(Nc1ccc2c(c1)CCN(C1CCC1)CC2)Nc1cccc2c1OC(F)(F)O2 [Example 136, N-(3-Cyclobutyl-2,3,4,5-tetrahydro-1H-3-benzazepin-7-yl)-N′-(2,2-difluoro-1,3-benzodioxol-4-yl)urea]
O=C(Nc1ccc2c(c1)CCN(C1CCC1)CC2)c1cccc(-n2cccn2)c1 [Example 94, N-(3-Cyclobutyl-2,3,4,5-tetrahydro-1H-3-benzazepin-7-yl)-3-(1H-pyrazol-1-yl)benzamide]
Cc1c(C(=O)Nc2ccc3c(c2)CCN(C2CCC2)CC3)nnn1-c1ccccc1.O=C(O)C(F)(F)F [Example 209, N-(3-Cyclobutyl-2,3,4,5-tetrahydro-1H-3-benzazepin-7-yl)-5-methyl-1-phenyl-1H-1,2,3-triazole-4-carboxamide trifluoroacetate]
O=C(Nc1ccc2c(c1)CCN(C1CCC1)CC2)c1ccncc1 [Example 118, N-(3-Cyclobutyl-2,3,4,5-tetrahydro-1H-3-benzazepin-7-yl)-4-pyridinecarboxamide]
O=C(Nc1ccc2c(c1)CCN(C1CCC1)CC2)c1cccc(-c2cnccn2)c1 [Example 53, N-(3-Cyclobutyl-2,3,4,5-tetrahydro-1H-3-benzazepin-7-yl)-3-(2-pyrazinyl)benzamide]
O=C(Nc1ccc2c(c1)CCN(C1CCC1)CC2)NC1CCCCC1 [Example 132, N-(3-Cyclobutyl-2,3,4,5-tetrahydro-1H-3-benzazepin-7-yl)-N′-cyclohexylurea]
O=C(Nc1ccc2c(c1)CCN(C1CCC1)CC2)c1cnc(O)cn1 [Example 9, N-(3-Cyclobutyl-2,3,4,5-tetrahydro-1H-3-benzazepin-7-yl)-5-hydroxy-2-pyrazinecarboxamide]
O=C(Nc1ccc2c(c1)CCN(C1CCC1)CC2)c1cccc(-n2cncn2)c1 [Example 95, N-(3-Cyclobutyl-2,3,4,5-tetrahydro-1H-3-benzazepin-7-yl)-3-(1H-1,2,4-triazol-1-yl)benzamide]
O=C(Nc1ccc2c(c1)CCN(C1CCC1)CC2)c1ccc(N2CCCC2=O)cc1 [Example 87, N-(3-Cyclobutyl-2,3,4,5-tetrahydro-1H-3-benzazepin-7-yl)-4-(2-oxo-1-pyrrolidinyl)benzamide]
